The other results are listed elsewhere or left out.
Key:
Experiment in all cases: log2 fold change, soluble protein after heating vs DMSO (PISA); higher = thermal stabilisation; K562 cells, 10 uM, 30 min; active = over 0.2 and 3.5 SD of the protein, either way, in both replicates (recomputed)
[1] = compound: C1=CC=C(C=C1)[C@H](COC2=CC3=C(C=C2)NC(=O)N3)NC(=O)C4=CC=CN(C4=O)CC5=CC(=C(C=C5)F)F
Method in brief: (§1)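 Values are thermal stability changes relative to control samples and are taken from duplicates. They are stated as log2 fold changes. Before quantification by TMTpro 16plex LC-MS/MS with equalised channel sums, K562 cells at 2×10^6 cells/mL were treated with 10 μM compound for 30 min, heated in aliquots for 3 min across 48°C-58°C, pooled, extracted in PBS with 0.5% NP-40 at 4°C, and centrifuged at 21,000xg for 90 min to give the soluble supernatant.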

Amino acid sequences for entries named in this document (tags omitted). A change or cut given only in a name is not applied to a line headed by its entry.
UniProt Q68CZ6: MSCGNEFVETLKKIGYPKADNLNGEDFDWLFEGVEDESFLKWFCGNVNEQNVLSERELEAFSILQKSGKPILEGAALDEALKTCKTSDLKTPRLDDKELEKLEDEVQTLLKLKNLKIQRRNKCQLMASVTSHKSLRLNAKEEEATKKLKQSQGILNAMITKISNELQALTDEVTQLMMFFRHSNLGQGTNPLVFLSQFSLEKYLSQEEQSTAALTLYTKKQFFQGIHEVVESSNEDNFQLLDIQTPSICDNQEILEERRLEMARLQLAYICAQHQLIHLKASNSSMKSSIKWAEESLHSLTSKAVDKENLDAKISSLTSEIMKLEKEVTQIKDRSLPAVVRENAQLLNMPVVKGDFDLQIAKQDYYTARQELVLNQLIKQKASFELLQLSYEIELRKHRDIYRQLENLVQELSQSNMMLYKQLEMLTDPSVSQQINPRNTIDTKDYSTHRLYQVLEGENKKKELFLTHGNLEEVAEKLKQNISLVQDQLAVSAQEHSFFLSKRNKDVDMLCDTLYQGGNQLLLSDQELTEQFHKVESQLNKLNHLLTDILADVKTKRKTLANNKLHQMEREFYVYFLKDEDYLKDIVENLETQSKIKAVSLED
UniProt P51610: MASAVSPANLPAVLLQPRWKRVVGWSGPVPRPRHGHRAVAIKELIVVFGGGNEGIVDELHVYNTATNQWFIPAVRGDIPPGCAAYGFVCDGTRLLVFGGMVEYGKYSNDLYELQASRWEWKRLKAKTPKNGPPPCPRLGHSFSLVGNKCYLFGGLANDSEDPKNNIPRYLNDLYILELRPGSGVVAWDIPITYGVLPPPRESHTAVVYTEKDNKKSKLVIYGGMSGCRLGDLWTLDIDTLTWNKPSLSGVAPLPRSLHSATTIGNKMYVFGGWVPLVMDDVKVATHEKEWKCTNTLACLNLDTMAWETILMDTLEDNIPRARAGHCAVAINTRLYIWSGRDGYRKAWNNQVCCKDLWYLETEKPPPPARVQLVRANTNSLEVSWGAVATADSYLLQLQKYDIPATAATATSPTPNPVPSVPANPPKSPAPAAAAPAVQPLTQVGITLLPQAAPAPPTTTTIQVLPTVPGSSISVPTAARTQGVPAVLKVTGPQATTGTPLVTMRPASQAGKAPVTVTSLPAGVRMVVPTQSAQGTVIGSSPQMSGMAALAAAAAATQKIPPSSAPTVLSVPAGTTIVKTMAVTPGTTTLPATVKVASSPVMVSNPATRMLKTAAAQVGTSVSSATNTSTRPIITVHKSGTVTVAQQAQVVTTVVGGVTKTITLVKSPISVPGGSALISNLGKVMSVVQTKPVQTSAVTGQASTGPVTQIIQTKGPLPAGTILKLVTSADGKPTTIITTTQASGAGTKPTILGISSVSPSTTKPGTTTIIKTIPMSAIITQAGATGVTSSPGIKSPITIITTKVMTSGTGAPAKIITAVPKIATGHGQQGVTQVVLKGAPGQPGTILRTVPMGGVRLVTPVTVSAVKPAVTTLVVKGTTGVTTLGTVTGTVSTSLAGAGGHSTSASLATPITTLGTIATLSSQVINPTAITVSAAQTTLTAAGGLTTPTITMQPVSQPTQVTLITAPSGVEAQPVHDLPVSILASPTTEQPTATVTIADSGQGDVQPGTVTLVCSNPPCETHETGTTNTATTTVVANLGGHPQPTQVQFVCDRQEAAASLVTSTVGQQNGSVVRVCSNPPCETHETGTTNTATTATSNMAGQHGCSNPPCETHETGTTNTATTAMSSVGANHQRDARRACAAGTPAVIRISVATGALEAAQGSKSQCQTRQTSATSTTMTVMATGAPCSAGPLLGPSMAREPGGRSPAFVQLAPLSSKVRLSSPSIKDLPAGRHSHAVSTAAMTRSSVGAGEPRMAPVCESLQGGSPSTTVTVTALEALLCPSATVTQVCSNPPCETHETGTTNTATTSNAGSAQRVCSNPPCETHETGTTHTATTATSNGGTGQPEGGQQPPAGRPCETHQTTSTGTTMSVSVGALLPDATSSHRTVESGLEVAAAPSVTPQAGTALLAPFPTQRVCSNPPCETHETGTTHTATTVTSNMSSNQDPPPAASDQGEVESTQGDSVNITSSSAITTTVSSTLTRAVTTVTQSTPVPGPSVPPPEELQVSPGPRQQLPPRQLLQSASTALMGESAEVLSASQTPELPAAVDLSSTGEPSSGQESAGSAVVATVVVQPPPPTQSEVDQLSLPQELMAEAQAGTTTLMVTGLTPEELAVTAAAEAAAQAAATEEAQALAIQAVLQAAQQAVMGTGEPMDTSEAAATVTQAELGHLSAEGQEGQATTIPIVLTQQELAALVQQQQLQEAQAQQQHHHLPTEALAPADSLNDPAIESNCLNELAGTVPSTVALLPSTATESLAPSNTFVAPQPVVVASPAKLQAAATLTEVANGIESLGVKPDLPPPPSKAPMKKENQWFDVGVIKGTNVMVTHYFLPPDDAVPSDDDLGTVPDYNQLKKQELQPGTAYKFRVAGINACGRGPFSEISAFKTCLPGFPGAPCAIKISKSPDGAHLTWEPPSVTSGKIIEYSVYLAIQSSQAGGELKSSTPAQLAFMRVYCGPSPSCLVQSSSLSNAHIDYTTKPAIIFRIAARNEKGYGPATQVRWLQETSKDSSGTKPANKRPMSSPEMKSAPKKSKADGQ
UniProt O75367, whole entry, looked up: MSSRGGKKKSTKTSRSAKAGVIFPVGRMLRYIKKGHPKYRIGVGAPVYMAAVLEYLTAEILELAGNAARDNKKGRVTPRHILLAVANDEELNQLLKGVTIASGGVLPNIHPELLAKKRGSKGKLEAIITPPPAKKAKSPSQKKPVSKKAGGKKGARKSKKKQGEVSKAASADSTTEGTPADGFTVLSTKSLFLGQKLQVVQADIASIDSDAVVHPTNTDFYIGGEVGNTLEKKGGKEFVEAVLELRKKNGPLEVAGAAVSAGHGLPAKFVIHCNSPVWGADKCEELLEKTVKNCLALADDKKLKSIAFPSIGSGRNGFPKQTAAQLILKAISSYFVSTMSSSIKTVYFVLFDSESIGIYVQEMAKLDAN
UniProt P35269, whole entry, looked up: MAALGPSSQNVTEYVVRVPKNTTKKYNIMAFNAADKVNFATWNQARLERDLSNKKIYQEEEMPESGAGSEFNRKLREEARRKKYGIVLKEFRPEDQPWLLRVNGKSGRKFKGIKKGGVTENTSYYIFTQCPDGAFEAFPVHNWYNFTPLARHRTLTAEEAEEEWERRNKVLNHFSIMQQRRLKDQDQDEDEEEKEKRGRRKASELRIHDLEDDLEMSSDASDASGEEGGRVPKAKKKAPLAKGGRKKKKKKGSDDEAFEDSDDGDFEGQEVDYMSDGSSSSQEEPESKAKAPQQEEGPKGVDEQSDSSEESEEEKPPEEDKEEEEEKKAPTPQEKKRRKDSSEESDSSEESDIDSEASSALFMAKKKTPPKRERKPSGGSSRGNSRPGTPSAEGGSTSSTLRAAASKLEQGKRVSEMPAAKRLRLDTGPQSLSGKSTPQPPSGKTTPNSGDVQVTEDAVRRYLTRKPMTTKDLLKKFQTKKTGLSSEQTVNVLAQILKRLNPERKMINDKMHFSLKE
UniProt Q8N4P3, whole entry, looked up: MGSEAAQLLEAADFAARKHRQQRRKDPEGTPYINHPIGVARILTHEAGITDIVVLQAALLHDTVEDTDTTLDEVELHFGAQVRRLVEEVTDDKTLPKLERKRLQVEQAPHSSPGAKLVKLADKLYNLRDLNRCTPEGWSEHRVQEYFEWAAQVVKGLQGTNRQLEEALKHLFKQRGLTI
UniProt Q96MH2: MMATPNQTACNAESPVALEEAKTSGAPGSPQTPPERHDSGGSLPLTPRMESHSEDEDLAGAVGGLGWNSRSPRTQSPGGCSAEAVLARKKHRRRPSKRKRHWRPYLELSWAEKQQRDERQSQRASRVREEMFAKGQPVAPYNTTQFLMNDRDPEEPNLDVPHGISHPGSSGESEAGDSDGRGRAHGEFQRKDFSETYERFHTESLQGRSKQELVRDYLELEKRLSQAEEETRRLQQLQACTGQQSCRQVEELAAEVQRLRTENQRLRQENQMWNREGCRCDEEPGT
UniProt Q9H116: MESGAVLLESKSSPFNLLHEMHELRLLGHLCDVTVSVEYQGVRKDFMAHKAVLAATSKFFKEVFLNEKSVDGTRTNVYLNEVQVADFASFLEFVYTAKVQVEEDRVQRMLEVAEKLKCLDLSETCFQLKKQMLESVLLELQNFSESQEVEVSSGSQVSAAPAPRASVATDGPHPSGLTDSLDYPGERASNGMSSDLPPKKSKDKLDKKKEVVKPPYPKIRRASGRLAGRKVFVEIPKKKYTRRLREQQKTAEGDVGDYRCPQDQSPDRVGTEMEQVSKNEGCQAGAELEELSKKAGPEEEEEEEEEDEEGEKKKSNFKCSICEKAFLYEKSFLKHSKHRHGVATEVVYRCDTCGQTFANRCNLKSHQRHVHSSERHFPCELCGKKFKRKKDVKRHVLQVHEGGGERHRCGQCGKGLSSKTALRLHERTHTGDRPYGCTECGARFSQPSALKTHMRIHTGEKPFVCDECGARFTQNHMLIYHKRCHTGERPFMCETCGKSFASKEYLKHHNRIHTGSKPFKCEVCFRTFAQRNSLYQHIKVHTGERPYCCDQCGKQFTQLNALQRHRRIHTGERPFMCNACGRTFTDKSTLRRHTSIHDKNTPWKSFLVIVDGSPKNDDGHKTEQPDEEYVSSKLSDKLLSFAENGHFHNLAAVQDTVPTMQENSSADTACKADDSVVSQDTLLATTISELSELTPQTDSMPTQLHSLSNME
UniProt Q6PII5: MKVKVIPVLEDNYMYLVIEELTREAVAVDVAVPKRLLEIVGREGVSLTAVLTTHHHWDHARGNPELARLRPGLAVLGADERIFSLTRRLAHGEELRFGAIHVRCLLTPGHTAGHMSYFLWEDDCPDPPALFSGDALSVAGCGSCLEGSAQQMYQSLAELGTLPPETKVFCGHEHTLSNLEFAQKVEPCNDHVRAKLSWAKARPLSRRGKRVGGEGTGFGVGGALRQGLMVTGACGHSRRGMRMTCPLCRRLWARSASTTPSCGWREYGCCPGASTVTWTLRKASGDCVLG
UniProt Q9UQL6: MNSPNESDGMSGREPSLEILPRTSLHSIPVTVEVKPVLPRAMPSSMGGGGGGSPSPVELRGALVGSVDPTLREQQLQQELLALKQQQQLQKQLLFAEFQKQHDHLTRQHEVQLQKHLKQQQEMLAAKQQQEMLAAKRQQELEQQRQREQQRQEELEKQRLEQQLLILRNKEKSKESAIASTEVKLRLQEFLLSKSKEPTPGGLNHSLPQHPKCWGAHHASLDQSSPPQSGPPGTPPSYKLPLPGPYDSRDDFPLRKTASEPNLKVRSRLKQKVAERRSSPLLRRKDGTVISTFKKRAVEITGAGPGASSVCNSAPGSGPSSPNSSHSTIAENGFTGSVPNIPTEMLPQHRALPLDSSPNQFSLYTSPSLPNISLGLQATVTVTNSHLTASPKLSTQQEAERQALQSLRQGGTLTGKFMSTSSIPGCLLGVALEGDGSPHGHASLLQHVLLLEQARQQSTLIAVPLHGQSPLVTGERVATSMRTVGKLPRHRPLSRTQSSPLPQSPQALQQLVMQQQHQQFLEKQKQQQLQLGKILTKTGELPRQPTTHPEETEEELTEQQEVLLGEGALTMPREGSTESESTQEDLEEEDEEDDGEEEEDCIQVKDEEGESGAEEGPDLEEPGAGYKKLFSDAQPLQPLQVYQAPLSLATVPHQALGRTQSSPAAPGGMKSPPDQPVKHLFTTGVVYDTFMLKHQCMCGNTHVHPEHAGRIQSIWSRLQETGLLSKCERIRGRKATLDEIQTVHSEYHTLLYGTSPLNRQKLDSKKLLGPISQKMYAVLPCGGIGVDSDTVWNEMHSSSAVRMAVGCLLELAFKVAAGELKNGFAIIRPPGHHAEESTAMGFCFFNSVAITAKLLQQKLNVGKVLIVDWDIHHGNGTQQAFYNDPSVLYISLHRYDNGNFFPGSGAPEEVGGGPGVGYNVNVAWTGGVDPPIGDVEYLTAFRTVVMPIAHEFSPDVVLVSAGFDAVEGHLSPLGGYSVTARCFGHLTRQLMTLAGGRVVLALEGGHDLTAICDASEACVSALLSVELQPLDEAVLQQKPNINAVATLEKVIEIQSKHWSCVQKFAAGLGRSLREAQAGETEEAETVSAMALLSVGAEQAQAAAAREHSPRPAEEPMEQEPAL
UniProt Q92759: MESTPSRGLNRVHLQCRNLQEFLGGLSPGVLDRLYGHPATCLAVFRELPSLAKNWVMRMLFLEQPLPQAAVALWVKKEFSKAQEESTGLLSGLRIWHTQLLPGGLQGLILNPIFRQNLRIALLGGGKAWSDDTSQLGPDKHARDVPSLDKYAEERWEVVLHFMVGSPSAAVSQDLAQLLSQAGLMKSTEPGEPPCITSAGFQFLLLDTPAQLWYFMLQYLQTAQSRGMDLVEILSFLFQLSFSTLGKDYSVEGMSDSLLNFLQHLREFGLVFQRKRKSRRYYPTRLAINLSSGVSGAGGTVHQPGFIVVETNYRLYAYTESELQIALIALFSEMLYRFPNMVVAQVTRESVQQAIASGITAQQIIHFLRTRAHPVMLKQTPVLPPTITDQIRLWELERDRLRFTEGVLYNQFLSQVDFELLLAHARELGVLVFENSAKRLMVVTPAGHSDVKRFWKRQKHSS

[2] = compound: CC1=C(SC2=C1C(=N[C@H](C3=NN=C(N32)C)CC(=O)N)C4=CC=C(C=C4)Cl)C
Method in brief: as §1

[3] = compound: CC1=C2C(=CC=C1)N=C(N(C2=O)C3=CC=CC=C3C)CN4C=NC5=C(N=CN=C54)N
Method in brief: as §1

[4] = compound: c1ccc([C@@H]2C[C@H]2NC2CCNCC2)cc1
Method in brief: as §1

[5] = compound: Cc1sc2c(c1C)C(c1ccc(Cl)cc1)=N[C@@H](CC(=O)OC(C)(C)C)c1nnc(C)n1-2
Method in brief: as §1

Measured: log2 fold change

HELZ (UniProt P42694)
inactive: [1] -0.012 | [2] -0.196 | [3] -0.066 | [4] 0.135

HEXD isoform 2 (UniProt Q8WVB3)
inactive: [3] -0.033

HAUS3 (UniProt Q68CZ6)
inactive: [2] -0.145 | [3] -0.234 | [5] 0.231 | [4] 0

HAUS8 (UniProt Q9BT25)
inactive: [2] -0.402 | [3] 0.078 | [4] 0.03

HAUS7 isoform 2 (UniProt Q99871)
inactive: [3] 0.129

HAUS5 (UniProt O94927)
inactive: [5] 0.293

HCFC1 (UniProt P51610)
inactive: [3] -0.061 | [5] -0.018

H2AFY (UniProt O75367)
inactive: [1] 0.029 | [2] -0.169 | [5] -0.4 | [4] 0.02

HACE1 (UniProt Q8IYU2)
inactive: [5] 0.07

GTF2H1 (UniProt P32780)
inactive: [2] -0.06 | [3] -0.007 | [4] 0.021

GTF2F1 (UniProt P35269)
inactive: [1] 0.009 | [2] 0.012 | [3] 0.052 | [5] -0.037 | [4] -0.04

HDDC3 (UniProt Q8N4P3)
inactive: [1] -0.005 | [2] 0.023 | [3] 0.126 | [5] 0.032 | [4] 0.024

GTPBP6 (UniProt O43824)
inactive: [1] 0.038 | [2] 0.007 | [3] 0.012 | [5] -0.062 | [4] -0.034

HEXIM2 (UniProt Q96MH2)
inactive: [3] 0.08

GZF1 (UniProt Q9H116)
inactive: [3] -0.273

H6PD (UniProt O95479)
inactive: [2] -0.11 | [3] 0.304 | [5] -0.05 | [4] -0.075

H3-2 (UniProt Q5TEC6)
inactive: [1] 0.092 | [3] 0.401

HAGHL isoform 2 (UniProt Q6PII5)
inactive: [1] -0.168 | [2] -0.134 | [3] 0.068 | [4] -0.12

GTF3C3 (UniProt Q9Y5Q9)
inactive: [1] -0.097 | [5] 0.04

HAL (UniProt P42357)
inactive: [2] -0.034 | [3] -0.692 | [5] -0.136 | [4] 0.219

HAGHL (UniProt Q6PII5)
inactive: [1] 0.109 | [2] 0.021 | [5] 0.077 | [4] 0.023

Six successive records out of the list so far, for reference:
GTPBP6 (UniProt O43824)
inactive: [1] 0.038 | [2] 0.007 | [3] 0.012 | [5] -0.062 | [4] -0.034

HEXIM2 (UniProt Q96MH2)
inactive: [3] 0.08

GZF1 (UniProt Q9H116)
inactive: [3] -0.273

H6PD (UniProt O95479)
inactive: [2] -0.11 | [3] 0.304 | [5] -0.05 | [4] -0.075

H3-2 (UniProt Q5TEC6)
inactive: [1] 0.092 | [3] 0.401

HAGHL isoform 2 (UniProt Q6PII5)
inactive: [1] -0.168 | [2] -0.134 | [3] 0.068 | [4] -0.12

(listing goes on)

HDAC5 isoform 3 (UniProt Q9UQL6)
inactive: [1] -0.061 | [2] 0.006 | [5] 0.082 | [4] 0.055

GTF2H4 (UniProt Q92759)
inactive: [2] -0.383 | [3] 0.026 | [5] 0.287 | [4] -0.152
